Source: patent US10011874B2, “Androgen receptor mutation” (NOVARTIS AG, priority 2013, dated 2018)

Test system: LNCaP cells, controls (C1-C3)
Experiment: cells
Details: Homo sapiens, read-out: aggregate IC50, growth inhibition
Procedure: Cells were re-seeded into 150 cm^2 dishes supplemented with the appropriate treatments once each week. Media and compound was replaced for dish 4 once every week. Once resistant clones emerged, media was aspirated from dish 4. […] Cells from control dishes 1-3 were maintained until resistant clones were cryopreserved to maintain a constant culture time for control and experimental lines.
1000 cells (spontaneous resistant or engineered lines) were seeded in media supplemented with 10% FCS. For spontaneous resistant clones, increasing concentrations of compounds were added on the day of seeding whereas for engineered lines, compounds were added after 2 d of doxycycline treatment. In all cases growth assays were performed using CellTiter-Glo Luminescent Cell Viability Assay Reagent (Promega, cat# G7573) 7 d following compound treatment.

IC50: 200 nM
Compound: CNC(=O)c1ccc(N2C(=S)N(c3ccc(C#N)c(C(F)(F)F)c3)C(=O)C2(C)C)cc1F [MDV3100, 4-{3-[4-cyano-3-(trifluoromethyl)phenyl]-5,5-dimethyl-4-oxo-2-sulfanylideneimidazolidin-1-yl}-2-fluoro-N-methylbenzamide]
